Test results from paper PMC8941131.
Numbering of substitutions follows the chain as printed. These are yes or no findings as the source states them, for the method shown. In cells and extracts the contact can be indirect. Some entries that bind do so weakly or less than the wild type. For some of these results: Sequences can lack the tags named with a protein.

Amino acid sequences for entries named in this document (tags omitted).
UniProt P31749: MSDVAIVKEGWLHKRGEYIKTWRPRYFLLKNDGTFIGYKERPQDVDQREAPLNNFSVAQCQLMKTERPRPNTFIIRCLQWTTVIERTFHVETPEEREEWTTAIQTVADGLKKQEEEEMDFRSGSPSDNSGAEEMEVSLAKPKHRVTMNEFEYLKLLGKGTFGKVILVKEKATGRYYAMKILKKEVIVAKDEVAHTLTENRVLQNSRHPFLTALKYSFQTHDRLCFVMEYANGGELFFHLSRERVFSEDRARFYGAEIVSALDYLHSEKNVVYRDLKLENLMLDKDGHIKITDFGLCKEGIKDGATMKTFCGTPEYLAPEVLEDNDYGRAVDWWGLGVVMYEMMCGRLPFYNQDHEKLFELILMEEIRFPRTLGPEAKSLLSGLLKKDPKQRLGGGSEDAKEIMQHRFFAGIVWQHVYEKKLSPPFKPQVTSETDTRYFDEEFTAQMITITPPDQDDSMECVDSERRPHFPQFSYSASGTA

How the values were obtained:
Test in all cases: co-IP; immunoprecipitation (anti-Flag or anti-HA agarose, 2-4 h at 4 °C) from whole cell lysates of co-transfected 293T cells; EBC lysis buffer, four washes with NETN buffer, immunoblot; in some panels with HA-S6K1-R3A or knock-down of 14-3-3γ
Flag-PDK1-P551L = biological target: T1, Flag-PDK1-P551L (UniProt O15530)
T1 sequence: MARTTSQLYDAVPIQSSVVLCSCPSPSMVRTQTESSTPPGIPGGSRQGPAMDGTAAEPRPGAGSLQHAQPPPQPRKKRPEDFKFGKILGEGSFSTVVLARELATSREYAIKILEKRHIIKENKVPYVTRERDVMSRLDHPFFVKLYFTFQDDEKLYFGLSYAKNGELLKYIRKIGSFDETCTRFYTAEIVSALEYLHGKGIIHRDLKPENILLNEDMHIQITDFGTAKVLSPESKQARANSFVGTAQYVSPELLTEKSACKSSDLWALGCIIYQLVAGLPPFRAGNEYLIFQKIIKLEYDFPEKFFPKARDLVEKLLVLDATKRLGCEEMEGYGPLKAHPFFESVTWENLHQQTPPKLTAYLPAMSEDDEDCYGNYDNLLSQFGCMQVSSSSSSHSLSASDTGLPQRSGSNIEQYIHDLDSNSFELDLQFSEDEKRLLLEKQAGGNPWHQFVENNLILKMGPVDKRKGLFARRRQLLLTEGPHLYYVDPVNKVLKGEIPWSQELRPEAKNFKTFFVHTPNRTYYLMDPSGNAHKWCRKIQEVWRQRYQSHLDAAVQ

PDK1-S549D-P551A = biological target: T2, PDK1-S549D-P551A (UniProt O15530)
T2 sequence: T1 sequence with S549D, L551A

Flag-PDK1-R544K = biological target: T3, Flag-PDK1-R544K (UniProt O15530)
T3 sequence: T1 sequence with R544K, L551P

Flag-PDK1-S549D = biological target: T4, Flag-PDK1-S549D (UniProt O15530)
T4 sequence: T1 sequence with S549D, L551P

binding (Flag-PDK1-P551L): binds
binding (PDK1-S549D-P551A): binds
binding (Flag-PDK1-R544K): binds
binding (Flag-PDK1-S549D): binds
Substance: HA-AKT1 (from UniProt P31749 1-480) (enzyme)
